Laboratory results: publication PMC12647202
Results are given in words; binding and its absence hold for the method and conditions named. In cells and extracts the contact can be indirect. A yes stands for co-enrichment or nearness to the bait. Other partners may have been found. Where a sequence is shown, tags or fusion partners need not be part of it.

T1: homolog of methionine γ-lyase (MGL) encoded by synpcc7942_2562, triple-FLAG-tagged (Synechococcus elongatus sp. PCC 7942) (UniProt Q54763)
T1 sequence: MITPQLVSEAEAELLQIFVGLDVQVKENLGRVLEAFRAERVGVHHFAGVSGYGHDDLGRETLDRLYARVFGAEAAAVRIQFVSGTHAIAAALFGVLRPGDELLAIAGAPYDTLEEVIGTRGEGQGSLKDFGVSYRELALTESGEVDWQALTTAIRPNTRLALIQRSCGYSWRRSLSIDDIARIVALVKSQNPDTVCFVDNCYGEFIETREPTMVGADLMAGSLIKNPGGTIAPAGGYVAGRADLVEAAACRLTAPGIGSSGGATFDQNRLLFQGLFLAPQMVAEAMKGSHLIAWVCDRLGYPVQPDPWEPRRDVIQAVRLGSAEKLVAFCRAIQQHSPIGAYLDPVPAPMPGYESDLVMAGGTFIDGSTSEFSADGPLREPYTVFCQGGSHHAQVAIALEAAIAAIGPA

B1: 1,4-dihydroxy-2-naphthoyl-CoA synthase (MenB) (enzyme, UniProt Q31QP0 1-279)
chain: MAQVQWQSVREYEDIRYEKCAEGIAKITINRPHKRNAFRPKTVVELYDAFCDAREDIAIGVILLTGAGPHTDGRYAFCAGGDQSVRGAGGYIDEEGLPRLNVLDLQRLIRTIPKVVIALVAGYAIGGGHVLHILCDLTIAADNAVFGQTGPKVGSFDGGFGASYLARLVGQKKAREIWFLCRQYGAKEALQMGLVNTVVPVEELEAEGIRWALEILEKSPIAIRCLKAAFNAELDGMAGIQELAGHATHLYYLTEEGSEGKQAFLEKRSPDFRQYPWLP
B2: translation initiation factor IF-2 (protein, UniProt Q31LL9 1-1030)
chain: MNNGKVRIYELSKELNLDNKDVLAVCDRLEIPYKSYSSTLSEEQVVQVRQVLAGAAPSEPVAAASAADSPKAERKQEIVSVRRPTPQAAGGAKPEIVGRPTASEKPQAERPNIVAPPRRPAAANEPAKAPIKPARPEKSAEKPEIVTPRPPAPAASAEPAKSPSRPAPAATPRPVAETKKPKPAAAELLRKPEIVRRSEAKPERTSEAPTPRPKIERRPEQTGPARPQLGQPVAGNGVSKPAKPVKPIELVAPPSRPKVAASASGVPAAASRVLPNKPQKPTAPGGPELKQRPKPAAPASGEDLAATVDVFQPVPPLELRRPTAPARPARPRKGWEEEEDERAAANRKAGNKAAAKAKRRQLIQDDDDDDLLTAEQELAAADALNLAMSLARPSKPKVPQAKPAVAVMPTKGRKPRRESARERQHRRRMEREQKPVRPELISLRSSMTVQELAQLMVVPETDIIKSLFFKGIAATVTQSLDVATIEQVAEEFGILVEQETEESGARKTTQMVEDADAESLQTRPPVVTVMGHVDHGKTTLLDAIRKTRVAAGEAGGITQHIGAYHVDVEHNGDQHQIVFLDTPGHEAFTAMRARGARVTDIAILVVAADDGVRPQTLEAISHAKAAEVPLIVAINKCDKEEAQPDRVKQELTEYGLVPEEWGGETVMVPVSAIKGENIDQLLEMILLVTEVEELVANPDRAARGTVIEAHLDKARGPVATLLVQNGTLRVGDVLVAGSVLGKVRAMVDDRGDRVEAATPSFAVEVLGLGDVPAAGDEFEVYSDEKSARAVATSRADEQRQSRLQQAMASRRVSLGTVSAQAQEGELKELNLILKADVQGSVEAILGSLEQLPQKQVQVRVLLAAPGEITETDVDLAAASGAVIVGFNTTLASGAKRAADEAGVDVRDYDIIYKLLEDIQAAMEGLLEPELVEEPLGQVEVRAVFSIGRGAVAGCYVQSGKAIRNCNIRVRRGSNLVYTGTLDSLKRMKEDVKEVNSGYECGIGLDSFSAWQEGDIIETYRMVTKRRTLEV
B3: ribose-5-phosphate isomerase A (enzyme, UniProt Q31QQ3 1-241)
chain: MLLNTRKPVMDPVTHMKHEVAKAAASRVQSGMVVGLGSGSTAALMIQYLGDRVRNGELTNIQAVPTSFQSSVLANEYGIPLTTLNEVDRIDIAIDGADEVDPQRNLIKGGGACHTREKLVDARAEQFIVVVDSSKLVEALGTTFLLPVEVLPEAYIQVGKALEKLGGKPELRMAVKKAGPVVTDQGNLVLDVKFDRIDQPAELEKAINNIPGVLENGLFVGLTDLVLVGEVDGDRVSVREF
B4: tRNA ligase MetG (enzyme, UniProt Q31P47 1-525)
chain: MPSTFALTTPLYYVNDVPHIGSAYTTIAADAIARFHRLQGDRVLMITGSDEHGQKIQRTAEKNGKPPQEHCNAIVARFQDLWQLLNIRYDRFSRTTDPRHQAIVEVFYRRVEAQGDIYVGRQQGWYCVACEEFKEERDLLEDKRCPIHTNQAVEWRDEENYFFRLSRYQEALEAHYAANPDFIQPESRRNEVLSFVERGLQDFSISRVNLEWGFAVPDNPKHTLYVWFDALLGYVTALLDPDAEPTLENALSQWWPINLHLIGKDILRFHAVYWPAMLLSAGLPLPDRVFGHGFLTKDGLKMGKSLGNTLDPFDLVDRFGSDAVRYYFLKEIEFGRDGDYQETRFVNVVNADLANDLGNLLNRTLSMAKRYCQLQIPLGSTAIAADNPLRQQGEALTDSVKSAYDRLAFSEACGQILALVQAGNRYLDQEAPWTRFKQGEQAKVEEILYTVLESVRLAAYWLSPLVPGISQEIYRQLGLVADFNDPAIAQQLDPESHGHWGFLPAAQQFLDPSPVFRSLELAPAD
B5: tRNA ligase AspS (enzyme, UniProt Q31NM6 1-599)
chain: MRTHYCGELRAEQVGTSVTLYGWVDRRRDHGGVIFVDLRDRTGTVQIVSDPERTPESYHQAEGLRNEYVVKITGRVSGRPAESLNPKLPTGEVEIYADRIEILNAVRRQLPFQVSSADEETVREDLRLRYRYLDLRRDRMNRNLQLRHQVVKAIRRFLEDEEQFIEIETPVLTKSTPEGARDYLVPSRVNPGEWFALPQSPQLFKQLLMVSGFDRYYQIARCFRDEDLRADRQPEFTQLDMEMSFLSQEEIIDLNERLIAHIFKTVKGIELPRPFPRLTYAEAMDRYGSDRPDTRFGLELVDVSDVVADMGFKVFSGAVKSGGKVKILPIPDGNDRISNVRIKPGGDIFKEATEAGAAGLAYIRVRENGEIDTIGAIKDNLSDEQKAEILRRTQAQPGTLLLFGAGSTDIVNKSLDRVRQFLGKELGLIDPEALNLLWVVDFPMVEWNADEKRYEALHHPFTAPNPQDLEDLTTARAQAYDIVLNGLEIGGGSLRIYQRDIQERVFETIGLSHEEAQAKFGFLLEAFDFGTPPHGGIAYGLDRLVMLLTGEESIRDAIAFPKTQQARCLLTEAPADVSDRQLKELYVASTWQPPIKERD
B6: tRNA ligase GlyS (enzyme, UniProt Q31SB9 1-728)
chain: MPAFLLEVGTEELPASFVAAAIAQWQNWLPTRLAEAQLTTTQISVYGTPRRLAVLIEGLPDRQPDREEEVKGPPASAAFKDGEPTPAAIGFARKQGVEVSDFTVRETDKGAFVFVQKREVGQPLADVLQSLVPSWIQDLEGKRFMRWGDGDLRFSRPIRWLVALIDDQVLPLELTSGGSTVQSDRLSRGHRVLHPEPVAIAQASDYLATLEAASVLVDPAQRQAKIEAQTAAIASKVGGQAELPEDLLAEVVHLTEWPTAVLGQFEERFLSLPAEVSTMVMTSHQRYFPIYQATAQRDPAAIDARSELLPCFVTISNGDPAASETIAAGNARVIRARLADGEYFYRTDSKQPLESFLSQLEAVTFQEQLGSVRSKVDRIGAIAHRLCDQLSIHSSDRLLVSRAAQLCKADLVSQMVYEFPELQGVMGEKYARVSQEPDAVATAIREHYLPKGAGDQLPQTLTGRMVALADRLDTLVCIFGLGLLPSGSSDPFALRRAANGVLNILWDGQLRLDLTALIQGIAADFHHAFPKLAGNAETLIQQLTDFFGQRLRTLLQDEQGIDYDLVNAVLGDGDANYLLRAIADPLDALNRAKLLQTLRQDGRLVALYETVNRATRLASKGDLDTATLDPTGLVNADLFQQPSEAAFLSALTTLQPLATAAQASQAYEPLVEGLLTAAPAVQSFFDGDTSVLVMDPDPAIQQNRLNLLGLLRNQARVLADFGAIVKGE
B7: elongation factor Ts (protein, UniProt Q31K58 1-221)
chain: MAEISAKLVKELREKTGAGMMDCKKALNENDGDLQKAIEWLRQKGIASAEKKSGRTAAEGLVGSYIHTGGRVGVLVEVNCETDFVARGDKFQELVRSIAMQIAACPNVEFVKVEDIPAEIAEREKAIEMGRDDLANKPENIREKIVVGRIEKRLKELTLLDQPYIRDPNISVAELVKQSIAELGENIQVRRFTRFVLGEGIEKAESDFAAEVAAQAAAAQS

Molecular target: T1, homolog of methionine γ-lyase (MGL) encoded by synpcc7942_2562, triple-FLAG-tagged (Synechococcus elongatus sp. PCC 7942)
Assay: affinity purification with mass spectrometry; lysate of S. elongatus strain 2562::Tn5/2562::FLAG on anti-FLAG magnetic beads, 2 h at room temperature and overnight at 4 °C; eluted with 100 µM triple-FLAG peptide; non-tagged strain 2562::Tn5/2562 as negative control; three independent biological repetitions; hits at fold ≥ 2, p value ≤ 0.05

Row | Binder | binding
1 | B1 | binds
2 | B2 | binds
3 | B3 | binds
4 | B4 | binds
5 | B5 | binds
6 | B6 | binds
7 | B7 | binds
